Assay results as given in PMC4161432.
Results are given in words; binding and its absence hold for the method and conditions named. Binding seen in cells or lysates may run through a third protein. Some results given as binding are weak or reduced against the parent protein; the word gives no strength.

Sequences of proteins named here, by UniProt entry; tags and fusion partners are left off.
UniProt Q86XR7: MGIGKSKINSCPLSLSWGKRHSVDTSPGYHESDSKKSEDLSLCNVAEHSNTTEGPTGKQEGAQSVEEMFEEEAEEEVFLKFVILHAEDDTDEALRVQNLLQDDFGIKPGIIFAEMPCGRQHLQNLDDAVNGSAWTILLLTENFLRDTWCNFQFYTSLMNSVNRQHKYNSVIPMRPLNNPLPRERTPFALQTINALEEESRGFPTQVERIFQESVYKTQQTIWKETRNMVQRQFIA
UniProt Q99836: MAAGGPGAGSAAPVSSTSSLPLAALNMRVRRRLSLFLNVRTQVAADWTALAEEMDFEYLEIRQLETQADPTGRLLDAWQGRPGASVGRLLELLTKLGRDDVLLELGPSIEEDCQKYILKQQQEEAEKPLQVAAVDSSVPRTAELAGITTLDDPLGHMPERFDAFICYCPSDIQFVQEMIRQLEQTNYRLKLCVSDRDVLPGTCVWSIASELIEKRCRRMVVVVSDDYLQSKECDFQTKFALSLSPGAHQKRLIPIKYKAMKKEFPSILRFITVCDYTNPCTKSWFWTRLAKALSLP

Assays:
[1] = target: Flag-tagged TRAM (TRIF related adaptor molecule) (UniProt Q86XR7); experiment: co-IP; HEK293-TLR7 cells co-transfected with Flag-TRAM and Myc-MyD88, stimulated with CLO97 (5 µg/ml) for 15, 30 and 60 min; lysis in low stringency buffer (50 mM HEPES pH 7.5, 150 mM NaCl, 1% NP-40, 0.5% sodium deoxycholate); IP with anti-Flag M2 and Protein A/G beads at 4°C; immunoblot
[2] = target: Flag-tagged TRAM (TRIF related adaptor molecule) (UniProt Q86XR7); experiment: condition: only unstimulated cells (without the TLR7 ligand CLO97); co-IP; HEK293-TLR7 cells co-transfected with Flag-TRAM and Myc-MyD88, left unstimulated (no CLO97); lysis in low stringency buffer; IP with anti-Flag M2 and Protein A/G beads at 4°C; immunoblot

Substance: Myc-tagged MyD88 (from UniProt Q99836 1-296)
- binding [1]: binds
- binding [2]: no binding
